# Reference: PMC12408839
# Protein sequences, listed by entry. Tags and fused reporters are not part of them.
# UniProt Q9Z351: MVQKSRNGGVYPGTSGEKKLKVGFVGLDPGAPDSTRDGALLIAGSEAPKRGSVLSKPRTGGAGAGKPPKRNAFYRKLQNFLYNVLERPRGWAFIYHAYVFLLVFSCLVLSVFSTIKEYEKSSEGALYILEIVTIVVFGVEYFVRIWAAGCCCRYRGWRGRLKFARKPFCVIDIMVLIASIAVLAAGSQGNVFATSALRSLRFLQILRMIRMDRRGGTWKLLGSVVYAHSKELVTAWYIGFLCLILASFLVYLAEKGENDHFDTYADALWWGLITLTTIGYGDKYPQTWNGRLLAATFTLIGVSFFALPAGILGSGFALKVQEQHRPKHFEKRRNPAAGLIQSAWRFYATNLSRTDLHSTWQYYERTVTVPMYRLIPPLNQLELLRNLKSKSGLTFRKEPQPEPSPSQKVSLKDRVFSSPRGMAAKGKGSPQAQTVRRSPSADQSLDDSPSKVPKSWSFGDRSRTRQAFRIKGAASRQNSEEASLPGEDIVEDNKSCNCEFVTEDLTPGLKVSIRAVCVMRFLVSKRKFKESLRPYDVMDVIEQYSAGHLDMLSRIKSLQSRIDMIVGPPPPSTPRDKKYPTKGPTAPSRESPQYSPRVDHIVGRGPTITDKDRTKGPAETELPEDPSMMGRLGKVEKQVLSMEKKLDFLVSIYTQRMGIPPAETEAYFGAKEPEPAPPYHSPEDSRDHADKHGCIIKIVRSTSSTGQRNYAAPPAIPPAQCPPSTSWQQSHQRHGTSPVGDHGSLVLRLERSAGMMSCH
# No constants are given. Whether binding was seen depends on the method and setting. Binding seen in cells or lysates may run through a third protein. Some entries that bind do so weakly or less than the wild type.
# Molecular target: T1, neuronal pentraxin 1 (NPTX1) (mouse (endogenous in dentate gyrus tissue)) (UniProt Q62443)
# T1 sequence: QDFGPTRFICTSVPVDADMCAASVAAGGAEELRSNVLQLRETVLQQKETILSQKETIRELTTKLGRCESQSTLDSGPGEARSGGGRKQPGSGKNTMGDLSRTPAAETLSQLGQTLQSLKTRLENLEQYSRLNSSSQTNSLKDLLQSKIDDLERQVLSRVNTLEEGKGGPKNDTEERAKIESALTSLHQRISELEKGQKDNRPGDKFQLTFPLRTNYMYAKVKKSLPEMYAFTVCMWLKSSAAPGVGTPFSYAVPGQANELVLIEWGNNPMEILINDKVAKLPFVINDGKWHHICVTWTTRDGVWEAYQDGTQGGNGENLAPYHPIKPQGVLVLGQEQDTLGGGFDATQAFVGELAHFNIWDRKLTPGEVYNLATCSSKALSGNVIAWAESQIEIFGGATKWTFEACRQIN
# Test: co-IP; DG tissue of C57BL/6J male mice (young; also young against aged mice) homogenised in RIPA buffer with protease and phosphatase inhibitors; 3 ug anti-NPTX1 antibody or control IgG, 4 h at 4 °C, Protein A/G magnetic beads overnight at 4 °C; blot with anti-KCNQ2 and anti-NPTX1
substance,measurement,value
KCNQ2 (Kv7.2) (from UniProt Q9Z351 1-759),binding,binds
